Measured values: patent US5714469A, “Method of treating sepsis” (priority 1994, dated 1998)
At least one peptide structure holds a part that was inferred or is arguable (an end, a ring closure or a residue).

System: E. coli
Test: Rat E. coli infected fibrin clot peritonitis (sepsis) model, survival
Type: in vivo
Conditions: for protection (survival at 14 days): plus gentamicin

NCCCC[C@H](NC(=O)[C@H](CCCC[C@H](NC(=O)[C@H](CC(=O)O)NC(=O)[C@H](CCC(=O)O)NC(=O)[C@@H]1CCC(=O)N1)C(=O)N[C@@H](CCCCN)C(=O)O)NC(=O)[C@H](CC(=O)O)NC(=O)[C@H](CCC(=O)O)NC(=O)[C@@H]1CCC(=O)N1)C(=O)O [SK&F 107647, (S)-5-oxo-L-prolyl-L-α-glutamyl-L-α-aspartyl-N^8-(5-amino-1-carboxypentyl)-8-oxo-N^7-[N-[N-(5-oxo-L-prolyl)-L-α-glutamyl]-L-α-aspartyl]-L-threo-2,7,8 triaminooctanoyl-lysine]
Survival (Alive/Dead) (Example 1, 0.1 ng/kg/day s.c. Alza pump from day -6, gentamicin 5 mg/kg twice a day for five days from 2 h after infection, survival at 14 days): 32/8
Survival (Alive/Dead) (Example 1, 1.0 ng/kg/day s.c. Alza pump from day -6, gentamicin 5 mg/kg twice a day for five days, survival at 14 days): 34/6
Survival (Alive/Dead) (Example 1, 10.0 ng/kg/day s.c. Alza pump from day -6, gentamicin 5 mg/kg twice a day for five days, survival at 14 days): 29/11
Survival (Alive/Dead) (Example 1, 100 ng/kg/day s.c. Alza pump from day -6, gentamicin 5 mg/kg twice a day for five days, survival at 14 days): 33/7
survival rates over the diluent treated control rats treated with gentamicin (Example 1, prophylactic 0.1, 1.0, 10 or 100 ng/kg followed by gentamicin treatment): significantly increases survival rates
protection (survival at 14 days) (Example 2, 10 ng/kg/day formulation given one, three, or six days before infection (day -1 p<0.03; day -3 p<0.002; day -6 p<0.001)): demonstrated statistically significant protection
protection (survival at 14 days) (Example 2, 10 ng/kg/day formulation given six hours or two hours before infection or two hours after infection): did not show statistically significant protection
Survival (Alive/Dead) (Example 2, pretreatment -1 Day, single s.c. poly-L-lactide formulation 10 ng/kg/day, gentamicin 10 mg/kg/day for 5 days, survival at 14 days): 16/9
Survival (Alive/Dead) (Example 2, pretreatment -3 Days, single s.c. poly-L-lactide formulation 10 ng/kg/day, gentamicin 10 mg/kg/day for 5 days, survival at 14 days): 19/6
Survival (Alive/Dead) (Example 2, pretreatment -6 Days, single s.c. poly-L-lactide formulation 10 ng/kg/day, gentamicin 10 mg/kg/day for 5 days, survival at 14 days): 22/3
Survival (Alive/Dead) (Example 3, 1.0 ng/kg/day single s.c. dose formulation on day -6, E. coli dose giving ten to twenty percent control survival, no antibiotic stated, 14 days after infection): 8/17
Survival (Alive/Dead) (Example 3, 3.3 ng/kg/day single s.c. dose formulation on day -6, no antibiotic stated, 14 days after infection): 12/13
Survival (Alive/Dead) (Example 3, 10 ng/kg/day single s.c. dose formulation on day -6, no antibiotic stated, 14 days after infection): 16/9
Survival (Alive/Dead) (Example 4, oral pretreatment 10 ng/kg/day on tablet, gentamicin 10 mg/kg/day for 5 days, survival at day 14): 23/2
Survival (Alive/Dead) (Example 4, oral pretreatment 33 ng/kg/day on tablet, gentamicin 10 mg/kg/day for 5 days, survival at day 14): 22/3
Survival (Alive/Dead) (Example 4, oral pretreatment 333 ng/kg/day on tablet, gentamicin 10 mg/kg/day for 5 days, survival at day 14): 13/12
Survival (Alive/Dead) (Example 5, 0.1 ng/kg/day biodegradable microsphere formulation six days prior to infection, ceftazidime 10 mg/kg s.c. twice a day for 14 days): 17/8
Survival (Alive/Dead) (Example 5, 1.0 ng/kg/day biodegradable microsphere formulation six days prior to infection, ceftazidime 10 mg/kg s.c. twice a day for 14 days): 19/6
Survival (Alive/Dead) (Example 5, 100 ng/kg/day biodegradable microsphere formulation six days prior to infection, ceftazidime 10 mg/kg s.c. twice a day for 14 days): 16/9
survival of animals challenged with lethal sepsis causing organisms (general statement): significantly increases
